From patent US20200283538A1
These are yes or no findings as the source states them, for the method shown. Some binding calls cover weakened binding; strength is not graded here.

Protein sequences, listed by entry. Tags and fused reporters are not part of them. Residues count along the entry.
UniProt Q02223, residues 1-54: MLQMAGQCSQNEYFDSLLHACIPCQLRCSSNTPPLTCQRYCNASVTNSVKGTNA

Tests used:
[1] = target: CONSTRUCT 4 (anti-BCMA chimeric antigen receptor without a degron signal) (human); assay: flow cytometry of transfected (ZsGreen positive) NFAT-luc2 Jurkat cells stained with AlexaFluor 647 BCMA-Fc after 24 h in DMSO or 10 µM lenalidomide
[2] = target: CONSTRUCT 5 (anti-BCMA chimeric antigen receptor with human Ikaros 3 degron sequences at the C-terminus) (human); assay: as above

In the case of “AlexaFluor 647 conjugated BCMA-Fc (from UniProt Q02223 1-54) (Fc fusion)”, the binding [1] is reported as “binds” and the binding [2] is reported as “binds”.
